Measurements as given in patent US20160046678A1 (ZYNGENIA, published 2016).
These are yes or no findings as the source states them, for the method shown. Some entries that bind do so weakly or less than the wild type.

target: T1, Angiopoietin-2 (Ang2) (human, UniProt O15123 19-496, biotin label in Examples 22-24); experiment: Example 48, method not detailed
T1 construct: also called rhAng2; recombinant Ang2
T1 sequence (looked up): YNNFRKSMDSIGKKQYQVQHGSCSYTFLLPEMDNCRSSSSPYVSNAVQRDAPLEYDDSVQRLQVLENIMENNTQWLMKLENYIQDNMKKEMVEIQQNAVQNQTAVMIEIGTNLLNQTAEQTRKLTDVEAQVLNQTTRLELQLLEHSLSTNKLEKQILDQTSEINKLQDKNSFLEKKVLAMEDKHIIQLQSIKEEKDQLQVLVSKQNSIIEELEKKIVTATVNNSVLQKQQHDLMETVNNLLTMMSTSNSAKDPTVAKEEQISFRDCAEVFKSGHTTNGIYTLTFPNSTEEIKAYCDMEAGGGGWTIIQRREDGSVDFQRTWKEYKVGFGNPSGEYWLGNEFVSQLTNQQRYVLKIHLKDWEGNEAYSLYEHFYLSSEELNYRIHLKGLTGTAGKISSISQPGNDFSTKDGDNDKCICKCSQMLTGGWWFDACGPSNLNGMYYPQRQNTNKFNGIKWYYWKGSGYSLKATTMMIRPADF

With WYDPYYACYFYPNPTYCY [ANG675] as the binder, how does the binding read?
The binding was “binds”.

For LSGPFLDCYFYPNPTHCY [ANG676], which binding is on record?
The binding was “binds”.

VMLDCYFYPNPLDCYWLT [ANG677] was tested. Which binding did it give?
Its binding is “binds”.

With SSLEHNDCYFYPNPMHCY [ANG679] as the binder, how does the binding read?
Its binding is “binds”.

For RHVDCYFYPNPPHCYLVL [ANG680], which binding is on record?
The binding was “binds”.

IYPECYFYPNPKSCYSDQ [ANG681] was tested. Which binding did it give?
The binding was “binds”.

How did the binding turn out when PPTSLADCYFFPNPLHCY [ANG682] was run?
The binding was “binds”.

Which binding does the source give for LLAACYFYPNPPLCFTST [ANG683] here?
Its binding is “binds”.

Which binding does the source give for GEEDCYFYPNPPHCYSEL [ANG684] here?
The binding was “binds”.

How did the binding turn out when ECYFYPNPPHCYMEHRST [ANG685] was run?
Its binding is “binds”.

For TEIECYFYPNPPQCYAIH [ANG686], which binding is on record?
Its binding is “binds”.

Which binding does the source give for PRMDCYFYPNPPHCYNGQ [ANG687] here?
Its binding is “binds”.

How did the binding turn out when MSLPHQNCYFFPNPTYCY [ANG688] was run?
The binding was “binds”.

YGDECYFFPNPPHCFSWD [ANG689] was tested. Which binding did it give?
The binding was “binds”.

With FFESSFDCYFFPNPNHCY [ANG691] as the binder, how does the binding read?
The binding was “binds”.

For MLVVPSDCYFYPNPSHCY [ANG692], which binding is on record?
The binding was “binds”.

How did the binding turn out when LQVDSLDCYFYPNPPHCY [ANG693] was run?
The binding was “binds”.

For QLMDCYFFPNPHHCFESK [ANG694], which binding is on record?
The binding was “binds”.

Which binding does the source give for DCYFYPNPPHCYNERYEA [ANG695] here?
Its binding is “binds”.

For SDMDCYFYPNPPHCFTPP [ANG696], which binding is on record?
The binding was “binds”.

GADTMQWNDCYFFPNPTHCY [ANG697] was tested. Which binding did it give?
Its binding is “binds”.

HIKDCYFFPNPPHCYKST [ANG698] was tested. Which binding did it give?
The binding was “binds”.

PHQRHLECYFYPNPPECY [ANG699] was tested. Which binding did it give?
The binding was “binds”.

For SYLDFTDCYFYPNPPHCY [ANG700], which binding is on record?
Its binding is “binds”.

Which binding does the source give for APGYTQDCYWFPNPPHCY [ANG701] here?
The binding was “binds”.

Which binding does the source give for RFSSFHDCYFYPNPSHCY [ANG702] here?
The binding was “binds”.

For HSHHLTDCYYFPNPLHCY [ANG703], which binding is on record?
Its binding is “binds”.

With AQVDCYFFPNPTHCYFDR [ANG704] as the binder, how does the binding read?
Its binding is “binds”.

MGDDCYFYPNPPRCYVKP [ANG705] was tested. Which binding did it give?
Its binding is “binds”.

For FLADCYLFPNPPHCYLDY [ANG706], which binding is on record?
The binding was “binds”.

How did the binding turn out when LGEDCYWYPNPPHCYGML [ANG707] was run?
Its binding is “binds”.

NDSVVSECYFFPNPPHCY [ANG708] was tested. Which binding did it give?
Its binding is “binds”.

How did the binding turn out when DCYFYPNPPSCYEVQGAS [ANG709] was run?
Its binding is “binds”.

For GPWECFFYPNPLHCFKEP [ANG710], which binding is on record?
Its binding is “binds”.

PSADFAECFFYPNPPQCY [ANG711] was tested. Which binding did it give?
Its binding is “binds”.

For ASNDIHDCYFYPNPPHCY [ANG712], which binding is on record?
The binding was “binds”.

How did the binding turn out when SDTDCYFYPNPPHCYWDT [ANG713] was run?
Its binding is “binds”.

Which binding does the source give for AFVHCYFFPNPQHCYHRL [ANG714] here?
Its binding is “binds”.

Which binding does the source give for MIFDCYFFPNPRHCYHEG [ANG715] here?
The binding was “binds”.

With SYFLTWDCYTYPNPPHCY [ANG716] as the binder, how does the binding read?
Its binding is “binds”.

With TGFECYFYPNPRHCYNDI [ANG718] as the binder, how does the binding read?
Its binding is “binds”.

LYPSLLDCYFYPNPTHCY [ANG719] was tested. Which binding did it give?
The binding was “binds”.

For MVDECYFYPNPPHCYSNT [ANG721], which binding is on record?
The binding was “binds”.

Which binding does the source give for PLRSYMDCYWYPNPPHCY [ANG722] here?
The binding was “binds”.

WLGRLSDCYFYPNPPHCY [ANG723] was tested. Which binding did it give?
Its binding is “binds”.

How did the binding turn out when FHIDCYFYPNPPHCYTGA [ANG724] was run?
Its binding is “binds”.

With NFRECVFYPNPPHCYDFG [ANG726] as the binder, how does the binding read?
The binding was “binds”.

With KEIDCYFYPNPPHCYGKW [ANG727] as the binder, how does the binding read?
The binding was “binds”.

For TNQDCYFYPNPPHCFRDH [ANG728], which binding is on record?
Its binding is “binds”.

For SNAQCYFYPNPLHCYKNA [ANG730], which binding is on record?
Its binding is “binds”.

Which binding does the source give for DCYFYPNPPHCYTVEGGK [ANG731] here?
Its binding is “binds”.

With QPMDCFFYPNPPHCYAEE [ANG732] as the binder, how does the binding read?
The binding was “binds”.

With IVSREYDCYFYPNPTHCY [ANG733] as the binder, how does the binding read?
Its binding is “binds”.

SMHDCYYYPNPTHCYRGT [ANG734] was tested. Which binding did it give?
Its binding is “binds”.

For DETECYWFPSPAHCYKDS [ANG736], which binding is on record?
The binding was “binds”.

How did the binding turn out when LGLDCYFYPNPPDCYHDA [ANG740] was run?
The binding was “binds”.

With FDEDCYFYPNPPHCYLLS [ANG741] as the binder, how does the binding read?
The binding was “binds”.

EHEACYFYPNPPHCYESS [ANG742] was tested. Which binding did it give?
The binding was “binds”.

PSYNIFECFFFPNPPHCY [ANG743] was tested. Which binding did it give?
The binding was “binds”.

With SESDCYFYPNPPHCYAVV [ANG744] as the binder, how does the binding read?
The binding was “binds”.

HPFDCYFYPNPPHCYTRS [ANG745] was tested. Which binding did it give?
The binding was “binds”.

Which binding does the source give for LILDCYFYPNPPHCYTST [ANG746] here?
Its binding is “binds”.

With YEFRWTDCYFYPNPPHCF [ANG747] as the binder, how does the binding read?
Its binding is “binds”.

QSQNVVECYFYPNPPHCY [ANG748] was tested. Which binding did it give?
The binding was “binds”.
